PubChem BioAssay AID1159578, Peter MacCallum Cancer Centre – 2015
The deposit covers about 18,000 reagents; this is a random part of them. About 1,030 of all reagents (5.7%) count as active. 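Inactive calls also include pools with fewer than 3300 nuclei, whose migration was not assessed.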 Raw values are not corrected between plates. The numbers tell different reagents against one gene apart. Further read-outs or replicates are left out here.

Test: 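siRNA pools altering how lymphatic endothelial cells close a scratch wound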 (primary screen)
System: human lymphatic endothelial cells
Knock-down reagent: siRNA pool against human genes, 40 nM
Timing: 48 h after transfection
Measurement: 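Cells stained with dye and imaged after a scratch; covered wound area and nuclei counted, duplicates averaged, migration set against mock wells and turned into a robust z-score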
Reading the numbers: migration robust z-score: higher = faster migration into the scratch; nuclei per well: higher = more cells in the well
Rule for the call: 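Migration changed when robust z exceeds 2 or falls below -2 and mean nuclei number is at least 3300; otherwise not called changed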
Meaning of the calls: active = migration changed; inactive = no migration change, or too few cells

migration robust z-score | nuclei per well, duplicate mean | outcome | gene | reagent no.
-3.01 | 5256 | active | EIF3I | 1
0.5 | 6170 | inactive | ALDH8A1 | 1
0.21 | 5628 | inactive | ZFYVE27 | 1
0.36 | 5706 | inactive | SMPDL3A | 1
-0.3 | 6092 | inactive | BTN3A3 | 1
-0.74 | 6842 | inactive | AZI2 | 1
-2.38 | 3272 | inactive | POMT2 | 1
0.42 | 3958 | inactive | TIPE1 | 1
0.64 | 5714 | inactive | CD70 | 1
0.38 | 5058 | inactive | SLC22A4 | 1
0.21 | 4478 | inactive | KCNQ3 | 1
-2.54 | 3440 | active | SCN1B | 1
0.54 | 6360 | inactive | NCAM1 | 1
2.4 | 6700 | active | DIPK1C | 1
-0.83 | 4608 | inactive | SIX2 | 1
-0.24 | 6120 | inactive | PITX3 | 1
-2.52 | 5402 | active | SYCP1 | 1
1.39 | 4634 | inactive | TTC19 | 1
0.55 | 6886 | inactive | PSMD5 | 1
1.25 | 6858 | inactive | YAF2 | 1
1.25 | 5167 | inactive | CNTN6 | 1
0 | 4978 | inactive | IFNA16 | 1
1.56 | 5633 | inactive | MED31 | 1
0.03 | 6048 | inactive | AATF | 1
-2.38 | 3970 | active | RPL35A | 1
-0.07 | 6076 | inactive | IFNA21 | 1
-1.2 | 3480 | inactive | NCK1 | 1
1.16 | 5106 | inactive | TMEM150C | 1
-0.08 | 5681 | inactive | LINC03122 | 1
0.7 | 4818 | inactive | UCP2 | 1
0.13 | 5660 | inactive | POU2F1 | 1
0.24 | 5865 | inactive | TMEM171 | 1
-0.73 | 5675 | inactive | SLC15A4 | 1
-0.76 | 6350 | inactive | MITF | 1
-1.37 | 4401 | inactive | RPS8 | 1
1.98 | 5326 | inactive | POGLUT1 | 1
1.14 | 6084 | inactive | ADGRE4P | 1
-1.09 | 5702 | inactive | LGALS2 | 1
0.36 | 6172 | inactive | VN1R2 | 1
-0.18 | 5292 | inactive | UBR3 | 1
2.76 | 5528 | active | FSIP2 | 1
2.02 | 5458 | active | FSIP2 | 2
-0.57 | 6148 | inactive | KIF26A | 1
0.5 | 6189 | inactive | BIRC3 | 1
0.5 | 6366 | inactive | CFAP57 | 1
-0.2 | 4562 | inactive | CST7 | 1
0.52 | 4986 | inactive | FRK | 1
-0.16 | 5832 | inactive | PTPRG | 1
-1.38 | 6527 | inactive | LGALS14 | 1
0.8 | 5134 | inactive | CLCN4 | 1
-1.37 | 6047 | inactive | DYDC2 | 1
0.73 | 5683 | inactive | DBH | 1
-0.34 | 4895 | inactive | ZNF3 | 1
-1.51 | 5310 | inactive | OR2A12 | 1
1.18 | 5644 | inactive | TNNT2 | 1
0.16 | 5720 | inactive | IL33 | 1
-1.89 | 4420 | inactive | TRPC3 | 1
-0.32 | 5608 | inactive | SST | 1
1.31 | 5682 | inactive | SESTD1 | 1
-1.18 | 4377 | inactive | TTLL2 | 1
1.77 | 5746 | inactive | ADAP1 | 1
2.15 | 6755 | active | LSM4 | 1
-1.69 | 5623 | inactive | ADAM33 | 1
0.88 | 5822 | inactive | CLEC1B | 1
1.1 | 5832 | inactive | LRRFIP2 | 1
-0.34 | 6734 | inactive | TNFRSF12A | 1
-0.8 | 5516 | inactive | BTBD10 | 1
-0.85 | 5966 | inactive | SPIN2B | 1
1.22 | 5854 | inactive | AOPEP | 1
0.38 | 6884 | inactive | SLC28A3 | 1
-1.68 | 4211 | inactive | RPS28 | 1
2.02 | 6462 | active | MCM2 | 1
1.22 | 6758 | inactive | EIF5A | 1

11 of these entries, set out differently:
migration robust z-score,"nuclei per well, duplicate mean",outcome,gene,reagent no.
0.55,6886,inactive,PSMD5,1
1.25,6858,inactive,YAF2,1
1.25,5167,inactive,CNTN6,1
0,4978,inactive,IFNA16,1
1.56,5633,inactive,MED31,1
0.03,6048,inactive,AATF,1
-2.38,3970,active,RPL35A,1
-0.07,6076,inactive,IFNA21,1
-1.2,3480,inactive,NCK1,1
1.16,5106,inactive,TMEM150C,1
-0.08,5681,inactive,LINC03122,1
